Source: article PMC10360407
No constants are given. Whether binding was seen depends on the method and setting. In cells and extracts the contact can be indirect. Some binding calls cover weakened binding; strength is not graded here.

Chains of the proteins cited; added tags and fusions are not shown.
UniProt Q02248: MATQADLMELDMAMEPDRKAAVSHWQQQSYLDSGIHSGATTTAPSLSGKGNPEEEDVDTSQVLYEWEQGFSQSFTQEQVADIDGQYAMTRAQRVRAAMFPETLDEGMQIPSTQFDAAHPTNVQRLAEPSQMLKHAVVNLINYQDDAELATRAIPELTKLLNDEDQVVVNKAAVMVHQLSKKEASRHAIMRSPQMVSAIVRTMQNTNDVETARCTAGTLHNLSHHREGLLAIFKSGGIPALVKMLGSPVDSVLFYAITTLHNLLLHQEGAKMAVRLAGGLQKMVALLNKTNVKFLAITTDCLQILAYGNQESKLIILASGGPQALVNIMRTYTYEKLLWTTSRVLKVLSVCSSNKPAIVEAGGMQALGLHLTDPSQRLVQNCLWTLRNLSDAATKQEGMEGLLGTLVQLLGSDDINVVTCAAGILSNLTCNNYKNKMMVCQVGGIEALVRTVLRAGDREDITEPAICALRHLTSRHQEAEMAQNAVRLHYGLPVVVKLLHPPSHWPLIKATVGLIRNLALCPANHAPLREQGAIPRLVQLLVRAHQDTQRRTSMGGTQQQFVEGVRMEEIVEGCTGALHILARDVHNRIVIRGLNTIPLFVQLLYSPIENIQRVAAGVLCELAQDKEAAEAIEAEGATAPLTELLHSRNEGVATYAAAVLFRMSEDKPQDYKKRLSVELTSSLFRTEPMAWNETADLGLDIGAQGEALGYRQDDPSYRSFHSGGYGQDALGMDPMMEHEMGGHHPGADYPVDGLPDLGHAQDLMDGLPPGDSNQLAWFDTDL
UniProt Q3TKT4: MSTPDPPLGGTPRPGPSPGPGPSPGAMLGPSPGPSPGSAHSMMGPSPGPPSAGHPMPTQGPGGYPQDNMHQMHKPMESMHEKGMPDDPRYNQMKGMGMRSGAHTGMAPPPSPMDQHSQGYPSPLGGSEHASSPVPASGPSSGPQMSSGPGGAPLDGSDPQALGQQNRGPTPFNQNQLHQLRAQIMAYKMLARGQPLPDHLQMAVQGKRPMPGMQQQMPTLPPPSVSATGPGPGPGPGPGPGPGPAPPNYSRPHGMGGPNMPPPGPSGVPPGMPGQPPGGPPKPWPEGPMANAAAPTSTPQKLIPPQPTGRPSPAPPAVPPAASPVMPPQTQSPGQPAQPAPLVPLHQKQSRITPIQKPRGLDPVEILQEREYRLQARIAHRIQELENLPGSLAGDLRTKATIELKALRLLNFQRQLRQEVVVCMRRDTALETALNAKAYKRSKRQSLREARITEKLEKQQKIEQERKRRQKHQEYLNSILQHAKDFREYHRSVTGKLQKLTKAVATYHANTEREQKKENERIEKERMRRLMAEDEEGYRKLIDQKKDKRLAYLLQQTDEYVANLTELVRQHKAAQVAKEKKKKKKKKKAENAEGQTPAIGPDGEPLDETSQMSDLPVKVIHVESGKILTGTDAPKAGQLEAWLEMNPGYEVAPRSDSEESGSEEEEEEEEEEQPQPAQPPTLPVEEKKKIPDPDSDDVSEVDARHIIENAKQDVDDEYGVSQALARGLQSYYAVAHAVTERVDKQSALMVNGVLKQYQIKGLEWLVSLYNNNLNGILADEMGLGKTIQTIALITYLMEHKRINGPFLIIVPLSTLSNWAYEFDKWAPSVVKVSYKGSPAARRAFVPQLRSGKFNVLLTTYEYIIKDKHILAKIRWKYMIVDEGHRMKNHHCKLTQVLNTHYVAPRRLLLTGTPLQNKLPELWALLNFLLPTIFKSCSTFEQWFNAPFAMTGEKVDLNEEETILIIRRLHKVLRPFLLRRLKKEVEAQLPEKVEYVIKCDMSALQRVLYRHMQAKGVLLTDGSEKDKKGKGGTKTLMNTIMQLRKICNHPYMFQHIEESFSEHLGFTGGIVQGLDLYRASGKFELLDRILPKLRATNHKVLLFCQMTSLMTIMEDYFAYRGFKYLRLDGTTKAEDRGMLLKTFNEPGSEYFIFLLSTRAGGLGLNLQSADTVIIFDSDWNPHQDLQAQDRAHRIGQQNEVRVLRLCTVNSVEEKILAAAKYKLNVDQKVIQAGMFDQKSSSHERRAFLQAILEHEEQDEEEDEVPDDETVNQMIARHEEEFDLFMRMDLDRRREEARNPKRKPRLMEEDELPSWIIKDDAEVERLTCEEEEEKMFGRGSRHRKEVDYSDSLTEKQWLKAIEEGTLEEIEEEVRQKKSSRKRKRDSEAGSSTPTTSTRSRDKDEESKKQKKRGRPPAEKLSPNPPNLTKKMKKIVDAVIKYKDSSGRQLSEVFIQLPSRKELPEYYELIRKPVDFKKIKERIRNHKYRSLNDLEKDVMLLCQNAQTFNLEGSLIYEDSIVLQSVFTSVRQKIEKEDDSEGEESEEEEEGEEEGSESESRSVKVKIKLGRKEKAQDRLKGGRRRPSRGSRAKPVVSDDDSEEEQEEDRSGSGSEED
UniProt A2BH40: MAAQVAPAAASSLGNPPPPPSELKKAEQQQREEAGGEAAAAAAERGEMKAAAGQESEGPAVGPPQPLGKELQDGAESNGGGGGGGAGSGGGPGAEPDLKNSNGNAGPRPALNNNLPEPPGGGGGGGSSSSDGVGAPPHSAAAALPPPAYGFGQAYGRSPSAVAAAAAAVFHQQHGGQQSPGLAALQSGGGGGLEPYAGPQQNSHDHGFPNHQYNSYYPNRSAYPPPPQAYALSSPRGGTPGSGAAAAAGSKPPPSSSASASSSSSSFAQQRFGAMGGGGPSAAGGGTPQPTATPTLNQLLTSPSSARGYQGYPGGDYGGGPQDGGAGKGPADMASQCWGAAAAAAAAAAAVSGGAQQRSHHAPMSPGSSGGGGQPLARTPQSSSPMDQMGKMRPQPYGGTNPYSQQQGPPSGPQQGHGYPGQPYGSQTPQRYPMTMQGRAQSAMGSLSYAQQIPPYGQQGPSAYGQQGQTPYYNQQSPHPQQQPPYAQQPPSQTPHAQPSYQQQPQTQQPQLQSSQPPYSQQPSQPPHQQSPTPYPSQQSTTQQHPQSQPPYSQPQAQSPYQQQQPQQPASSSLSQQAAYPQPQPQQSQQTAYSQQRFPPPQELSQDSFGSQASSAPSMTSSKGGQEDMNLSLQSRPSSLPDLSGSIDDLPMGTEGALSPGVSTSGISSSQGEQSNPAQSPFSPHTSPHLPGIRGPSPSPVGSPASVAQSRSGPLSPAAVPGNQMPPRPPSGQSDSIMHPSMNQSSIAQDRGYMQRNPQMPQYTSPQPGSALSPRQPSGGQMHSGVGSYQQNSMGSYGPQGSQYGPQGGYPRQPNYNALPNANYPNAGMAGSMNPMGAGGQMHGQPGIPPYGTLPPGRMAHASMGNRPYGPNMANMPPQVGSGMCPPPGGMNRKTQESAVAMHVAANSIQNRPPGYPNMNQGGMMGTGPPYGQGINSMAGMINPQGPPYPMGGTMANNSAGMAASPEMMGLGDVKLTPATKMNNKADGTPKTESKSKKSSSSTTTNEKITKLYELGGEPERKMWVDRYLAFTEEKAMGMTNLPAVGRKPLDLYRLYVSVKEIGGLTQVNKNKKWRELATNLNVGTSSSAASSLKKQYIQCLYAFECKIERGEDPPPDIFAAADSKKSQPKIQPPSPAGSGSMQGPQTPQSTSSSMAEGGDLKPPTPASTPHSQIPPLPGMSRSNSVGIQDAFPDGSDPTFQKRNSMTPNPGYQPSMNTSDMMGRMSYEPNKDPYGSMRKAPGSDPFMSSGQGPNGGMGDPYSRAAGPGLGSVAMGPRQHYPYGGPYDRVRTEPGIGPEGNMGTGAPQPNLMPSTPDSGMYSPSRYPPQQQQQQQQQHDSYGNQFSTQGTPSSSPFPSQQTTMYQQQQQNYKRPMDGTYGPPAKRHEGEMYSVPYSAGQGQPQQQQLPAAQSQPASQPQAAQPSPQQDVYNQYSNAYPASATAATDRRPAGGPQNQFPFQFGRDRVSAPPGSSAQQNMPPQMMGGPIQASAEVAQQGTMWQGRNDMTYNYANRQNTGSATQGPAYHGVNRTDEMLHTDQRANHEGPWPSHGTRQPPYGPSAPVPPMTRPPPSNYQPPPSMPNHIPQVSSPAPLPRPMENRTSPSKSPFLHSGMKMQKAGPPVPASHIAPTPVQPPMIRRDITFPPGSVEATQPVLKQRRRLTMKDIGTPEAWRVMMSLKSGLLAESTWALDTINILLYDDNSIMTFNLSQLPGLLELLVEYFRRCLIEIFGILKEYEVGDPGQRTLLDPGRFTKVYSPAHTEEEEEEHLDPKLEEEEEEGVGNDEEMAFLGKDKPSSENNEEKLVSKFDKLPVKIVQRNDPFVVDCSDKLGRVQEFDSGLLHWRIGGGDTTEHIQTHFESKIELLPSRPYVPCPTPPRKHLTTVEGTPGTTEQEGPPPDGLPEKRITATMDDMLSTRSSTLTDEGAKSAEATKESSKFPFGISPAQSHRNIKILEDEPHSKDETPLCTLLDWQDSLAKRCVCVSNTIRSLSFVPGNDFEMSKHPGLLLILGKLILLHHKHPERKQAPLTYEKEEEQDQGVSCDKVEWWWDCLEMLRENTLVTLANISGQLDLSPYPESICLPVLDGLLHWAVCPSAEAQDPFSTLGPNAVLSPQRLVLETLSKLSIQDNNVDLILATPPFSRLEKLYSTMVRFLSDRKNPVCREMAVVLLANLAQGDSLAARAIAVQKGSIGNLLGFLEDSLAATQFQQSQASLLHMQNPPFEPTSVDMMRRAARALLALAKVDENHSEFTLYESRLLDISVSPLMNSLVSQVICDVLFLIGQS

Columns and labels:
Assay in all cases: co-IP; nuclear fraction (RIPA lysate) of C2C12 myoblasts differentiated for 48 h with DMSO or 50 uM PFI-3; antibodies against β-catenin, BRG1 or BAF250A overnight at 4 °C, protein A beads, washed with RIPA buffer; immunoblot; IgG as control
[1] = molecular target: β-catenin (mouse (endogenous in C2C12)) (UniProt Q02248)
[2] = molecular target: Brahma-Related Gene 1 (BRG1) (mouse (endogenous in C2C12)) (UniProt Q3TKT4)
[3] = molecular target: BAF250A (mouse (endogenous in C2C12)) (UniProt A2BH40)

Substance: Brahma-Related Gene 1 (BRG1) (from UniProt Q3TKT4 1-1613)
- binding [1]: binds

Substance: BAF250A (from UniProt A2BH40 1-2283)
- binding [2]: binds
- binding [1]: binds

Substance: β-catenin (from UniProt Q02248 1-781)
- binding [2]: binds
- binding [3]: binds
